Taken from: PubChem BioAssay AID504808 (Drosophila RNAi Screening Center, 2011)
Screen: 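Chromatin factors that keep E2F targets switched off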 (primary screen). System: Drosophila S2 cells. Reagent: long dsRNA against Drosophila genes. Detection: 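Firefly luciferase driven by E2F sites, normalised to Renilla luciferase on the same minimal promoter, measured by plate reader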. Reading the numbers: E2F firefly: higher = more E2F reporter activity; Renilla normaliser: higher = more normaliser reporter signal. Rule for the call: 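a knock-down counted as active when the firefly/Renilla E2F signal rose above 50%, a threshold chosen arbitrarily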.
The screen tested about 21,000 reagents; this is an unselected part of those with a known target gene and a result. In the full data, 18 (0.084%) were called active. 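Raw counts without plate normalisation, one of two replicates; the ratio scores behind the calls were not deposited.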 A plus sign joins genes that one reagent is predicted to hit. Not given: the amount of reagent, the time to read-out.

| gene | PubChem SID | E2F firefly, rep 1 | Renilla normaliser, rep 1 | Outcome |
| --- | --- | --- | --- | --- |
| Dpck | SID104192367 | 1.25e5 | 7137 | inactive |
| CG44014 | SID104194787 | 1.24e5 | 5934 | inactive |
| CG4455 | SID104181775 | 72441 | 3439 | inactive |
| p23 | SID104194950 | 64143 | 3860 | inactive |
| CG5397 | SID104180475 | 82163 | 3274 | inactive |
| east | SID104198562 | 2.20e5 | 6697 | active |
| Top1 | SID104200087 | 1.69e5 | 5373 | inactive |
| RpS5b | SID104195965 | 1.15e5 | 7218 | inactive |
| CG1631 | SID104200327 | 1.33e5 | 6185 | inactive |
| Hou | SID104199793 | 1.48e5 | 5796 | inactive |
| CG10694 | SID104194055 | 1.07e5 | 6376 | inactive |
| moon | SID104199289 | 1.41e5 | 6751 | inactive |
| Cht4 | SID104184395 | 92997 | 3631 | inactive |
| CG7506 | SID104190652 | 86227 | 3308 | inactive |
| fid | SID104194677 | 1.08e5 | 6189 | inactive |
| fid | SID104196256 | 90074 | 5714 | inactive |
| CG7886 | SID104196125 | 1.06e5 | 5943 | inactive |
| Acp29AB | SID104181649 | 1.31e5 | 5562 | inactive |
| Sfxn1-3 | SID104191975 | 1.42e5 | 7833 | inactive |
| CG6495 | SID104181785 | 74894 | 3376 | inactive |
| l(3)87Df | SID104196774 | 1.24e5 | 5670 | inactive |
| CG42580 | SID104200189 | 86994 | 2966 | inactive |
| Task6 | SID104196322 | 1.22e5 | 6811 | inactive |
| CG8944 | SID104199920 | 75174 | 692 | inactive |
| CG42741 | SID104184385 | 1.00e5 | 4529 | inactive |
| kune | SID104184652 | 1.15e5 | 4286 | inactive |
| fd19B | SID104200480 | 1.38e5 | 6375 | inactive |
| CG7465 | SID104188384 | 92235 | 3528 | inactive |
| Cp7Fb | SID104197826 | 1.05e5 | 5573 | inactive |
| Pde9 | SID104199538 | 1.37e5 | 6374 | inactive |
| Pde9 | SID104199666 | 1.31e5 | 6962 | inactive |
| Pde9 | SID104199667 | 7696 | 393 | inactive |
| Pde9 | SID104199668 | 1.01e5 | 4827 | inactive |
| RpL9 | SID104183210 | 89495 | 146 | inactive |
| mRpL46 | SID104188183 | 94582 | 4241 | inactive |
| CG5334 | SID104199733 | 1.66e5 | 6171 | inactive |
| Sesn | SID104183893 | 76871 | 3615 | inactive |
| Sesn | SID104183894 | 1.12e5 | 4731 | inactive |
| Sesn | SID104183895 | 89934 | 3565 | inactive |
| AP-1-2beta | SID104199128 | 1.28e5 | 7301 | inactive |
| CG32668 | SID104198671 | 79553 | 2545 | inactive |
| CG3222 | SID104190147 | 88352 | 4097 | inactive |
| CG33234 | SID104187786 | 1.29e5 | 4691 | inactive |
| Glyp | SID104180544 | 45645 | 3644 | inactive |
| CG12699 | SID104185954 | 79625 | 3455 | inactive |
| CG7694 | SID104196080 | 1.34e5 | 6272 | inactive |
| Had2 | SID104185763 | 3148 | 193 | inactive |
| CG11912 | SID104180124 | 85563 | 3389 | inactive |
| Shc | SID104191076 | 1.21e5 | 6357 | inactive |
| CG4955 | SID104199719 | 1.57e5 | 5784 | inactive |
| put | SID104196831 | 63860 | 3683 | inactive |
| CG9302 | SID104182983 | 47271 | 3457 | inactive |
| CG13858 (retired record) | SID104194500 | 1.39e5 | 8255 | inactive |
| CG13858 (retired record) | SID104194501 | 1.52e5 | 6889 | inactive |
| CG13858 (retired record) | SID104194502 | 1.47e5 | 7001 | inactive |
| CG13858 (retired record) | SID104194503 | 1.32e5 | 7586 | inactive |
| CG17560 | SID104195034 | 1.21e5 | 5826 | inactive |
| NiPp1 | SID104187099 | 73092 | 3034 | inactive |
| Gcn5 | SID104191040 | 67816 | 4087 | inactive |
| CG43328 | SID104185432 | 1.62e5 | 6423 | inactive |
| CG7201 | SID104190578 | 1.02e5 | 3975 | inactive |
| Sems | SID104191418 | 1.25e5 | 6351 | inactive |
| CG5391 | SID104195582 | 1.23e5 | 6937 | inactive |
| insb | SID104186787 | 1.28e5 | 4444 | inactive |
| FeCH | SID104196740 | 1916 | 920 | inactive |
| Eip63F-1 | SID104187864 | 1.26e5 | 4256 | inactive |
| Eip63F-1 | SID104188451 | 1.05e5 | 5107 | inactive |
| CG13066 | SID104189741 | 1.69e5 | 8355 | inactive |
| Elba1 | SID104180068 | 1.59e5 | 5966 | inactive |
| CG13305 | SID104189767 | 1.00e5 | 3786 | inactive |
| twe | SID104183420 | 77031 | 3710 | inactive |
| SNRPG | SID104199999 | 1.43e5 | 7892 | inactive |
| CG5080 | SID104180469 | 78794 | 3627 | inactive |
| CG34330 | SID104199835 | 1.45e5 | 7927 | inactive |
| LysRS | SID104197616 | 7634 | 748 | inactive |
| GatC + PolG2 | SID104183104 | 79652 | 3390 | inactive |
| Sbf | SID104196644 | 66502 | 3488 | inactive |
| Nepl7 | SID104182287 | 96278 | 4469 | inactive |
| CG9294 | SID104184329 | 1.06e5 | 4917 | inactive |
| Fbxl4 | SID104199597 | 7318 | 704 | inactive |
| MCPH1 | SID104186101 | 157 | 33 | inactive |
| MCPH1 | SID104187100 | 1.08e5 | 4228 | inactive |
| Pat1 | SID104197542 | 8538 | 804 | inactive |
| Kah | SID104187679 | 1.49e5 | 4573 | inactive |
| Kah | SID104188307 | 86142 | 4155 | inactive |

Hits (from the list above):
| gene | PubChem SID | E2F firefly, rep 1 | Renilla normaliser, rep 1 | Outcome |
| --- | --- | --- | --- | --- |
| east | SID104198562 | 2.20e5 | 6697 | active |
